These are yes or no findings as the source states them, for the method shown. Some results given as binding are weak or reduced against the parent protein; the word gives no strength.
Key:
[1] = molecular target: human IL-21 (human) (UniProt Q9HBE4); assay: ELISA on coated hIL-21 (FIG. 13)
[2] = molecular target: human IL-21 (human) (UniProt Q9HBE4); assay: ELISA, hIL-21 coated at 1 ug/ml, serial dilutions of antibody
[3] = molecular target: human IL-21 (human) (UniProt Q9HBE4); assay: SPR (ProtOn XPR36), biotinylated hIL21 immobilised on NLC chip
[4] = molecular target: human IL-21 (human) (UniProt Q9HBE4); assay: SPR (FIG. 14)
[5] = molecular target: human IL-21 (human) (UniProt Q9HBE4); assay: SPR (ProteOn XPR36, NLC chip): immobilised biotinylated hIL21, antibody as analyte
[6] = molecular target: human IL-21 (human) (UniProt Q9HBE4); assay: ELISA: coated hIL-21 (1 ug/ml), serial dilutions of the antibody, anti-human IgG HRP, TMB

Amino acid sequences for entries named in this document (tags omitted). A change or cut given only in a name is not applied to a line headed by its entry.
UniProt Q9HBE4: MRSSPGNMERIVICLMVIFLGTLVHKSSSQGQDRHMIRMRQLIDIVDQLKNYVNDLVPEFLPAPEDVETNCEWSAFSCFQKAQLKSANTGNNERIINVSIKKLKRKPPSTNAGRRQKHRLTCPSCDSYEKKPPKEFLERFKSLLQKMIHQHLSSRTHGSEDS

binding [1]: binds
binding [2]: binds
binding [3]: binds
binding [4]: binds
binding [5]: binds
binding [6]: binds
B1: humanized 2P2 antibody (antibody, V domains shown)
VH: QVQLVQSGAEVKKPGASVKVSCKASGFNIKDYYIHWVRQAPGQGLELIGWIDPESGDTNYAQKFQVKATMTRDTSISTAYMELSRLRSDDTAVYYCNDGSGYWGQGTTVTVSS
VL: DVVMTQSPLSLPVTLGQPASISCKSSQSLLDSDGETYLNWLQQRPGQSPRRLISLVSKLDSGVPDRFSGSGSGTDFTLKISRVEAEDVGVYYCWQGTHFPYTFGQGTKLEIK
